The values that follow come from paper PMC12292926, “PELP1 coordinates the modular assembly and enzymatic activity of the rixosome complex” (Science Advances, 2025).

Sequences of proteins named here, by UniProt entry; tags and fusion partners are left off. A change or cut given only in a name is not applied to a line headed by its entry.
UniProt Q8IZL8: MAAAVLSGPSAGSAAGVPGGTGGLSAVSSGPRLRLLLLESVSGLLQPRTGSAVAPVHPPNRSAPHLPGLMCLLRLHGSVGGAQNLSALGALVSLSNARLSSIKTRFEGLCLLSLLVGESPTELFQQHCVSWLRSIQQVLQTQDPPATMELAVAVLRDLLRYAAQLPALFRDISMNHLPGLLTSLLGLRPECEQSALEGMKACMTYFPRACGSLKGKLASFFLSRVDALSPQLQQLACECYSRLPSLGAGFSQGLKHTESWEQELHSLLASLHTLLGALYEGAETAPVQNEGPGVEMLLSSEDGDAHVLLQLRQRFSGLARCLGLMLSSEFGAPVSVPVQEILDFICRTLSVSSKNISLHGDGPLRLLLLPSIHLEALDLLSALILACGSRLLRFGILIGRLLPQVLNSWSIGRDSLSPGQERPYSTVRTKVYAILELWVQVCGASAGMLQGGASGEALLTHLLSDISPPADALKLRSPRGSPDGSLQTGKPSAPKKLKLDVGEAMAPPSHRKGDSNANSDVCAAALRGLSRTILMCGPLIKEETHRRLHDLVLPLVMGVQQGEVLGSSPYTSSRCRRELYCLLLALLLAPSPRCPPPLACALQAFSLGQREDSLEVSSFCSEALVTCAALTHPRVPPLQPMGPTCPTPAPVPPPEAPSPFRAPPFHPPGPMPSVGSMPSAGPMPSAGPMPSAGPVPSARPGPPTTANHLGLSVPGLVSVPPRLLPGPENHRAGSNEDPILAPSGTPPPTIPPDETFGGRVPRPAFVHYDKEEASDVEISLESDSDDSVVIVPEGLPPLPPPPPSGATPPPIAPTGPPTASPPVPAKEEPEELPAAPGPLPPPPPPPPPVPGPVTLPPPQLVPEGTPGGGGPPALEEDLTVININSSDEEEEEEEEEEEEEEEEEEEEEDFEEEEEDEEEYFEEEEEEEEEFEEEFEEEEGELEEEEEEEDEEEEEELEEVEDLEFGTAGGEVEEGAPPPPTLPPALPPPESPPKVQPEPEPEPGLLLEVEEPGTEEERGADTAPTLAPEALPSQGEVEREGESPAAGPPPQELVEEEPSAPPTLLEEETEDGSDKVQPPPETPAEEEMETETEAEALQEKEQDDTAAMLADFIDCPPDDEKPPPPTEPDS
UniProt Q9H4L4: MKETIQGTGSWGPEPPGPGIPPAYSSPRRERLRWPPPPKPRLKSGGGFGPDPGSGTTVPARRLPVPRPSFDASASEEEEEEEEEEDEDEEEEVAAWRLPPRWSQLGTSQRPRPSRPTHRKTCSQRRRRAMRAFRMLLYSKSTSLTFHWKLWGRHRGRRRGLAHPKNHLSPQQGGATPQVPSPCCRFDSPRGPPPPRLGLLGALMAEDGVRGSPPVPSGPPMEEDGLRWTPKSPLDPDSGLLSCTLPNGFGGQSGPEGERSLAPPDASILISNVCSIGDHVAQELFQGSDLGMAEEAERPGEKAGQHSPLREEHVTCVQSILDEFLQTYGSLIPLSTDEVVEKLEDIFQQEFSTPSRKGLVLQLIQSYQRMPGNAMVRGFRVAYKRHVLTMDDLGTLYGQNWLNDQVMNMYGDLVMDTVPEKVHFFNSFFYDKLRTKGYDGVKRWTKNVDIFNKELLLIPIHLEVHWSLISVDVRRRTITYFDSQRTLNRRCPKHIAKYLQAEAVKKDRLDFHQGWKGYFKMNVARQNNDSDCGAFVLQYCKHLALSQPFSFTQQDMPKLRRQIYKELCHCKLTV

Results are given in words; binding and its absence hold for the method and conditions named. For some assays here: Binding can be weak; no strength is given. For some assays here: Binding seen in cells or lysates may run through a third protein.

Assay [1] addresses TEX10 structurally conserved N terminus, N-terminal GFP tag (human) (UniProt Q9NXF1). In words: co-IP; anti-GFP nanobody Sepharose; N-terminally GFP-tagged TEX10 variants as bait, exogenous rixosome including LAS1L-NOL9 co-transfected in HEK293FT; Western blot. In general terms: In western blotting, separated proteins are transferred to a membrane and probed.
Assay [2] concerns the target PELP1 with the FVH motif (765-767) deleted, C-terminal FLAG tag (human) (UniProt Q8IZL8). In words: co-IP; anti-FLAG M2 affinity gel; FLAG-tagged PELP1 variants as bait, exogenous rixosome subunits co-transfected in HEK293FT; lysis in 50 mM Hepes pH 7.5, 200 mM NaCl, 5 mM MgCl2, 10% glycerol, 0.5% NP-40, 1 mM DTT, 4°C; SDS-PAGE and Western blot.
The target in assay [3] is PELP1 with the FVH motif (765-767) mutated, C-terminal FLAG tag (human) (UniProt Q8IZL8). The description is as above.
Assay [4] deals with PELP1 with the VEI motif (776-778) deleted, C-terminal FLAG tag (human) (UniProt Q8IZL8). The assay is described as above.
Assay [5] addresses PELP1 with the VEI motif (776-778) mutated, C-terminal FLAG tag (human) (UniProt Q8IZL8). The assay is described as above.
Assay [6] has as its target SENP3 N-terminal domain, N-terminal FLAG tag (human). In words: co-IP; anti-FLAG M2 affinity gel; N-terminally FLAG-tagged SENP3 truncations as bait, exogenous rixosome co-transfected in HEK293FT; Western blot.
Assay [7] deals with wild-type SENP3 apoprotein (protease domain) used for differential scanning fluorimetry (human). As to the kind of experiment: differential scanning fluorimetry; SENP3 0.6 mg/ml with or without 1.5x molar excess of sPELP1 or lPELP1; 20 mM Hepes pH 7.3, 200 mM NaCl, 10% glycerol; Sypro Orange, 25 to 95°C; both purified. On the technique in general: Differential scanning fluorimetry follows unfolding on heating by fluorescence.

In assay [8] the target is TEX10 without the N-terminal tail, N-terminal GFP tag (human). As to the kind of experiment: co-IP; anti-GFP nanobody Sepharose; N-terminally GFP-tagged TEX10 variants as bait, exogenous rixosome including LAS1L-NOL9 co-transfected in HEK293FT; Western blot.

For “PELP1, co-expressed rixosome subunit found with TEX10 or SENP3 baits (from UniProt Q8IZL8 1-1130)”, the binding result in assay [1] is “no binding”.

As for “SENP3, co-expressed rixosome subunit found with PELP1 or TEX10 baits (from UniProt Q9H4L4 1-574) (enzyme)”, the binding result in assay [1] is “no binding”; in assay [2] it was “binds”; in assay [3], “binds”; in assay [4], “no binding”; in assay [5], “no binding”.

B1: TEX10, co-expressed rixosome subunit found with PELP1 or SENP3 baits (protein, UniProt Q9NXF1 1-929)
chain: MTKKRKRQHDFQKVKLKVGKKKPKLQNATPTNFKTKTIHLPEQLKEDGTLPTNNRKLNIKDLLSQMHHYNAGVKQSALLGLKDLLSQYPFIIDAHLSNILSEVTAVFTDKDANVRLAAVQLLQFLAPKIRAEQISPFFPLVSAHLSSAMTHITEGIQEDSLKVLDILLEQYPALITGRSSILLKNFVELISHQQLSKGLINRDRSQSWILSVNPNRRLTSQQWRLKVLVRLSKFLQALADGSSRLRESEGLQEQKENPHATSNSIFINWKEHANDQQHIQVYENGGSQPNVSSQFRLRYLVGGLSGVDEGLSSTENLKGFIEIIIPLLIECWVEAVPPQLATPVGNGIEREPLQVMQQVLNIISLLWKLSKQQDETHKLESWLRKNYLIDFKHHFMSRFPYVLKEITKHKRKEPNKSIKHCTVLSNNIDHLLLNLTLSDIMVSLANASTLQKDCSWIEMIRKFVTETLEDGSRLNSKQLNRLLGVSWRLMQIQPNREDTETLIKAVYTLYQQRGLILPVRTLLLKFFSKIYQTEELRSCRFRYRSKVLSRWLAGLPLQLAHLGSRNPELSTQLIDIIHTAAARANKELLKSLQATALRIYDPQEGAVVVLPADSQQRLVQLVYFLPSLPADLLSRLSRCCIMGRLSSSLAAMLIGILHMRSSFSGWKYSAKDWLMSDVDYFSFLFSTLTGFSKEELTWLQSLRGVPHVIQTQLSPVLLYLTDLDQFLHHWDVTEAVFHSLLVIPARSQNFDILQSAISKHLVGLTVIPDSTAGCVFGVICKLLDHTCVVSETLLPFLASCCYSLLYFLLTIEKGEAEHLRKRDKLWGVCVSILALLPRVLRLMLQSLRVNRVGPEELPVVGQLLRLLLQHAPLRTHMLTNAILVQQIIKNITTLKSGSVQEQWLTDLHYCFNVYITGHPQGPSALATVY
Turning to B1, the binding result in assay [6] was “no binding”.

B2: sPELP1 peptide (PELP1 residues Ala764-Glu781) (peptide, UniProt Q8IZL8 764-781, looked up)
peptide: AFVHYDKEEASDVEISLE
notes: also called short (s) PELP1; PELP1^SLiM peptide (764 to 781aa); source: synthetic peptide (GenScript)
On to B2, for which the binding result in assay [7] is listed as “binds”.

B3: WDR18, co-expressed rixosome subunit (protein, UniProt Q9BV38 1-432)
chain: MAAPMEVAVCTDSAAPMWSCIVWELHSGANLLTYRGGQAGPRGLALLNGEYLLAAQLGKNYISAWELQRKDQLQQKIMCPGPVTCLTASPNGLYVLAGVAESIHLWEVSTGNLLVILSRHYQDVSCLQFTGDSSHFISGGKDCLVLVWSLCSVLQADPSRIPAPRHVWSHHALPITDLHCGFGGPLARVATSSLDQTVKLWEVSSGELLLSVLFDVSIMAVTMDLAEHHMFCGGSEGSIFQVDLFTWPGQRERSFHPEQDAGKVFKGHRNQVTCLSVSTDGSVLLSGSHDETVRLWDVQSKQCIRTVALKGPVTNAAILLAPVSMLSSDFRPSLPLPHFNKHLLGAEHGDEPRHGGLTLRLGLHQQGSEPSYLDRTEQLQAVLCSTMEKSVLGGQDQLRVRVTELEDEVRNLRKINRDLFDFSTRFITRPAK
For the molecule B3, the binding result in assay [6] is given as “no binding”; in assay [1], “no binding”; in assay [8], “binds”.
